Laboratory results: paper doi:10.1101/2022.02.24.481622

Assays:
Experiment in all cases: proximity labelling
[1] = target: CRMPB-TurboID (TGGT1_292020, C-terminal TurboID) (Toxoplasma gondii (RH strain))
[2] = target: CRMPB-TurboID (TGGT1_292020, C-terminal TurboID) (Toxoplasma gondii (RH strain)); remark: listed apart in the source
[3] = target: CRMPA-TurboID (TGGT1_261080, TurboID tag) (Toxoplasma gondii (RH strain))

Measured: binding

B1: Mic8 (protein, UniProt Q9BIM7 19-684)
chain: SFLKEMDSIFVSAIRQNVQHTHSALLAKLKEPPDPDDENSWLCRISKKYDACGSREYSDKGLKGTYCPEDFCCSKTACFYGSCGSWCHDNWALCSSSIIYHDEYSYGKCNCKRFQENCDVNAICVHANREDGGAYCQCKEGYWGDGKSCKIDFCQLQPCGAGTCTRTDEGYKCDCPETHKLIVVEDKETCKAKPDFCAEEPCGPPSMVENCVNTDDSYECVCKQGYEVRNGRCEEIDLCADKPCGPDEGVHECVTERQPKLRYRCTCKAGFDLTTLPDGVSQKCLKNFCYEEPCGTRDLVESCKSKAYGYSCLCAAGAMVQVINGKEKCIKADLCRNDPCGPETAVIQCYSHGTSYRCLCKAGYTEVFVNGKSSCQKGDPCTLNMCGGNEAVQECTTDGTAYGCTCKPGYSIAIKHGQKFCNPEEECASHCGSAAAVKSCEILDSGGYQCTCNPGYVMRYSDYVKGCVEGNQCSLNPCGEQEAVQRCIPEGDTYDCECNPGFVKRVLPDGNFICADPASCVGNPCGSSDAVDACIAGTSTYTCRCKDGYTPQSIGSKLQCLPESTDQTDFDSKHKPEDNKGRYSKGTIALVVVGCVALLGIIAGGISYARNRGGERDDEDLAPPPRSTRERRLSSMGEGFENASWASSVSMIPSAPAPPPSGGIWS
no binding: all assays above

Like-named read-outs stand apart in the source and are kept apart here. Results are given in words; binding and its absence hold for the method and conditions named. In cells and extracts the contact can be indirect. A yes stands for co-enrichment or nearness to the bait. Other partners may have been found. No binding means not detected with the bait.
